Record: PubChem BioAssay AID1224830 (NIAID, 2016)

Purpose: 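Genes whose knock-down alters the TNF-alpha reporter response to LPS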 (primary screen)
Cells: human THP-1 monocytic leukaemia cells, TNF dual-luciferase reporter clone, PMA-differentiated to macrophage-like cells
Reagent: siRNA pool against human genes, 50 nM
Timing: LPS for 4 h, given about 3 days after siRNA transfection
Conditions: bacterial LPS (TLR4 ligand), 10 ng/ml
Detection: 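TNF firefly reporter luminescence divided by renilla, normalised to the plate median, then turned into a robust z-score for each replicate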
Scale: TNF reporter robust z-score: higher = stronger TNF reporter response to LPS
Active means: 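Each well counts as active if its z-score is over 2.8 or under -1.5; controls are left without a call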
Here is an unselected part of about 18,000 deposited reagents. About 2,900 of all reagents (16%) were called active. 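Calls are made per well; low scores hint the gene aids the LPS response, high scores that it dampens it.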 Repeated entries: four replicate wells of each siRNA pool. Reagent sequences are not shown.

| Target gene | TNF reporter robust z-score | call |
| --- | --- | --- |
| MBTD1 (mbt domain containing 1) | 0.68 | inactive |
| MBTD1 (mbt domain containing 1) | 0.95 | inactive |
| MBTD1 (mbt domain containing 1) | 0.86 | inactive |
| MBTD1 (mbt domain containing 1) | 0.79 | inactive |
| UQCR11 (ubiquinol-cytochrome c reductase, complex III subunit XI) | 0.26 | inactive |
| UQCR11 (ubiquinol-cytochrome c reductase, complex III subunit XI) | -0.15 | inactive |
| UQCR11 (ubiquinol-cytochrome c reductase, complex III subunit XI) | 0.66 | inactive |
| UQCR11 (ubiquinol-cytochrome c reductase, complex III subunit XI) | 0.7 | inactive |
| TLR1 (toll like receptor 1) | 1.02 | inactive |
| TLR1 (toll like receptor 1) | 0.91 | inactive |
| TLR1 (toll like receptor 1) | 0.21 | inactive |
| TLR1 (toll like receptor 1) | 0.61 | inactive |
| CCDC42 (coiled-coil domain containing 42) | 0.52 | inactive |
| CCDC42 (coiled-coil domain containing 42) | -0.03 | inactive |
| CCDC42 (coiled-coil domain containing 42) | 0.2 | inactive |
| CCDC42 (coiled-coil domain containing 42) | 0 | inactive |
| FOXC1 (forkhead box C1) | 1.11 | inactive |
| FOXC1 (forkhead box C1) | 2.82 | active |
| FOXC1 (forkhead box C1) | 0.33 | inactive |
| FOXC1 (forkhead box C1) | 2.59 | inactive |
| ZC3HC1 (zinc finger C3HC-type containing 1) | -0.45 | inactive |
| ZC3HC1 (zinc finger C3HC-type containing 1) | 1.24 | inactive |
| ZC3HC1 (zinc finger C3HC-type containing 1) | -0.3 | inactive |
| ZC3HC1 (zinc finger C3HC-type containing 1) | -0.09 | inactive |
| ARR3 (arrestin 3) | 1.71 | inactive |
| ARR3 (arrestin 3) | 1.54 | inactive |
| ARR3 (arrestin 3) | 1.8 | inactive |
| ARR3 (arrestin 3) | 0.31 | inactive |
| PLCXD2 | 2.39 | inactive |
| PLCXD2 | 2.81 | active |
| PLCXD2 | 3.67 | active |
| PLCXD2 | 4.31 | active |
| NDUFB8 (NADH:ubiquinone oxidoreductase subunit B8) | 0.96 | inactive |
| NDUFB8 (NADH:ubiquinone oxidoreductase subunit B8) | 0.07 | inactive |
| NDUFB8 (NADH:ubiquinone oxidoreductase subunit B8) | -0.25 | inactive |
| NDUFB8 (NADH:ubiquinone oxidoreductase subunit B8) | -0.41 | inactive |
| ZFAND3 (zinc finger AN1-type containing 3) | -0.94 | inactive |
| ZFAND3 (zinc finger AN1-type containing 3) | -0.29 | inactive |
| ZFAND3 (zinc finger AN1-type containing 3) | -1.27 | inactive |
| ZFAND3 (zinc finger AN1-type containing 3) | -0.08 | inactive |
| AKAP8L (A-kinase anchoring protein 8 like) | 0.68 | inactive |
| AKAP8L (A-kinase anchoring protein 8 like) | 2.38 | inactive |
| AKAP8L (A-kinase anchoring protein 8 like) | 0.53 | inactive |
| AKAP8L (A-kinase anchoring protein 8 like) | 2.93 | active |
| OLR1 (oxidized low density lipoprotein receptor 1) | 0.28 | inactive |
| OLR1 (oxidized low density lipoprotein receptor 1) | 0.04 | inactive |
| OLR1 (oxidized low density lipoprotein receptor 1) | 0.52 | inactive |
| OLR1 (oxidized low density lipoprotein receptor 1) | 1.14 | inactive |
| NRAP (nebulin related anchoring protein) | 0.27 | inactive |
| NRAP (nebulin related anchoring protein) | 0.17 | inactive |
| NRAP (nebulin related anchoring protein) | -0.34 | inactive |
| NRAP (nebulin related anchoring protein) | 0.79 | inactive |
| UBE3A (ubiquitin protein ligase E3A) | -0.08 | inactive |
| UBE3A (ubiquitin protein ligase E3A) | 0.77 | inactive |
| UBE3A (ubiquitin protein ligase E3A) | 0.5 | inactive |
| UBE3A (ubiquitin protein ligase E3A) | 0.38 | inactive |
| RHOBTB2 (Rho related BTB domain containing 2) | -1.34 | inactive |
| RHOBTB2 (Rho related BTB domain containing 2) | 0.77 | inactive |
| RHOBTB2 (Rho related BTB domain containing 2) | 0.34 | inactive |
| RHOBTB2 (Rho related BTB domain containing 2) | 0.2 | inactive |
| UBE2Z (ubiquitin conjugating enzyme E2 Z) | -0.19 | inactive |
| UBE2Z (ubiquitin conjugating enzyme E2 Z) | -0.57 | inactive |
| UBE2Z (ubiquitin conjugating enzyme E2 Z) | -0.35 | inactive |
| UBE2Z (ubiquitin conjugating enzyme E2 Z) | -1.19 | inactive |
| DCC (DCC netrin 1 receptor) | 3.4 | active |
| DCC (DCC netrin 1 receptor) | 1.31 | inactive |
| DCC (DCC netrin 1 receptor) | 1.01 | inactive |
| DCC (DCC netrin 1 receptor) | 0.14 | inactive |
| STXBP3 (syntaxin binding protein 3) | -0.01 | inactive |
| STXBP3 (syntaxin binding protein 3) | -0.16 | inactive |
| STXBP3 (syntaxin binding protein 3) | -0.61 | inactive |
| STXBP3 (syntaxin binding protein 3) | -0.69 | inactive |
| ACSM4 (acyl-CoA synthetase medium chain family member 4) | -0.79 | inactive |
| ACSM4 (acyl-CoA synthetase medium chain family member 4) | -0.67 | inactive |
| ACSM4 (acyl-CoA synthetase medium chain family member 4) | -0.41 | inactive |
| ACSM4 (acyl-CoA synthetase medium chain family member 4) | -0.27 | inactive |
| FAM117B (family with sequence similarity 117 member B) | 0.57 | inactive |
| FAM117B (family with sequence similarity 117 member B) | -0.01 | inactive |
| FAM117B (family with sequence similarity 117 member B) | -1.41 | inactive |
| FAM117B (family with sequence similarity 117 member B) | -0.17 | inactive |
| CLTCL1 (clathrin heavy chain like 1) | 2.27 | inactive |
| CLTCL1 (clathrin heavy chain like 1) | 0.47 | inactive |
| CLTCL1 (clathrin heavy chain like 1) | 1.55 | inactive |
| CLTCL1 (clathrin heavy chain like 1) | 2.24 | inactive |
| OR4Q3 (olfactory receptor family 4 subfamily Q member 3) | -0.66 | inactive |
| OR4Q3 (olfactory receptor family 4 subfamily Q member 3) | 0.87 | inactive |
| OR4Q3 (olfactory receptor family 4 subfamily Q member 3) | 1.12 | inactive |
| OR4Q3 (olfactory receptor family 4 subfamily Q member 3) | 1.55 | inactive |
| DRC8 (dynein regulatory complex subunit 8) | -0.81 | inactive |
| DRC8 (dynein regulatory complex subunit 8) | 0.56 | inactive |
| DRC8 (dynein regulatory complex subunit 8) | 1.08 | inactive |
| DRC8 (dynein regulatory complex subunit 8) | -0.34 | inactive |
| PDE1C (phosphodiesterase 1C) | 0.08 | inactive |
| PDE1C (phosphodiesterase 1C) | 1.03 | inactive |
| PDE1C (phosphodiesterase 1C) | 0.28 | inactive |
| PDE1C (phosphodiesterase 1C) | 0.91 | inactive |
| ABHD15 (abhydrolase domain containing 15) | 0.6 | inactive |
| ABHD15 (abhydrolase domain containing 15) | 1.35 | inactive |
| ABHD15 (abhydrolase domain containing 15) | 0.01 | inactive |
| ABHD15 (abhydrolase domain containing 15) | 0.89 | inactive |
| PKNOX2 (PBX/knotted 1 homeobox 2) | 1.87 | inactive |
| PKNOX2 (PBX/knotted 1 homeobox 2) | 2.41 | inactive |
| PKNOX2 (PBX/knotted 1 homeobox 2) | 1.22 | inactive |
| PKNOX2 (PBX/knotted 1 homeobox 2) | 1.6 | inactive |
| TYSND1 (trypsin like peroxisomal matrix peptidase 1) | -0.63 | inactive |
| TYSND1 (trypsin like peroxisomal matrix peptidase 1) | -0.02 | inactive |
| TYSND1 (trypsin like peroxisomal matrix peptidase 1) | 0.31 | inactive |
| TYSND1 (trypsin like peroxisomal matrix peptidase 1) | -0.42 | inactive |
| HSD17B10 (hydroxysteroid 17-beta dehydrogenase 10) | 1.32 | inactive |
| HSD17B10 (hydroxysteroid 17-beta dehydrogenase 10) | 1.29 | inactive |
| HSD17B10 (hydroxysteroid 17-beta dehydrogenase 10) | 1.11 | inactive |
| HSD17B10 (hydroxysteroid 17-beta dehydrogenase 10) | 0.85 | inactive |
| BRICD5 (BRICHOS domain containing 5) | 0.8 | inactive |
| BRICD5 (BRICHOS domain containing 5) | 2.3 | inactive |
| BRICD5 (BRICHOS domain containing 5) | 0.72 | inactive |
| BRICD5 (BRICHOS domain containing 5) | 1.43 | inactive |
| RFC3 (replication factor C subunit 3) | 0.36 | inactive |
| RFC3 (replication factor C subunit 3) | 1.06 | inactive |
| RFC3 (replication factor C subunit 3) | -0.13 | inactive |
| RFC3 (replication factor C subunit 3) | 1.73 | inactive |
| INPP5K (inositol polyphosphate-5-phosphatase K) | -1.13 | inactive |
| INPP5K (inositol polyphosphate-5-phosphatase K) | -0.35 | inactive |
| INPP5K (inositol polyphosphate-5-phosphatase K) | -0.8 | inactive |
| INPP5K (inositol polyphosphate-5-phosphatase K) | -0.87 | inactive |
| SERPINC1 (serpin family C member 1) | -0.41 | inactive |
| SERPINC1 (serpin family C member 1) | 0.28 | inactive |
| SERPINC1 (serpin family C member 1) | 0.03 | inactive |
| SERPINC1 (serpin family C member 1) | -0.05 | inactive |
| CTNNBIP1 (catenin beta interacting protein 1) | -1.18 | inactive |
| CTNNBIP1 (catenin beta interacting protein 1) | -1.36 | inactive |
| CTNNBIP1 (catenin beta interacting protein 1) | -1.12 | inactive |
| CTNNBIP1 (catenin beta interacting protein 1) | -0.79 | inactive |
| CDKN1B (cyclin dependent kinase inhibitor 1B) | -0.22 | inactive |
| CDKN1B (cyclin dependent kinase inhibitor 1B) | -0.05 | inactive |
| CDKN1B (cyclin dependent kinase inhibitor 1B) | -0.92 | inactive |
| CDKN1B (cyclin dependent kinase inhibitor 1B) | 0.51 | inactive |
| APOL6 (apolipoprotein L6) | 1.18 | inactive |
| APOL6 (apolipoprotein L6) | 0.16 | inactive |
| APOL6 (apolipoprotein L6) | 0.48 | inactive |
| APOL6 (apolipoprotein L6) | -0.22 | inactive |
